One molecule from publication PMC7759511 can be followed below.

Results are given in words; binding and its absence hold for the method and conditions named. In cells and extracts the contact can be indirect. Some entries that bind do so weakly or less than the wild type.

The assay addresses T1, serpin family E member 2 (human (endogenous in Hep3b and MHCC97h)) (UniProt P07093).
T1 sequence: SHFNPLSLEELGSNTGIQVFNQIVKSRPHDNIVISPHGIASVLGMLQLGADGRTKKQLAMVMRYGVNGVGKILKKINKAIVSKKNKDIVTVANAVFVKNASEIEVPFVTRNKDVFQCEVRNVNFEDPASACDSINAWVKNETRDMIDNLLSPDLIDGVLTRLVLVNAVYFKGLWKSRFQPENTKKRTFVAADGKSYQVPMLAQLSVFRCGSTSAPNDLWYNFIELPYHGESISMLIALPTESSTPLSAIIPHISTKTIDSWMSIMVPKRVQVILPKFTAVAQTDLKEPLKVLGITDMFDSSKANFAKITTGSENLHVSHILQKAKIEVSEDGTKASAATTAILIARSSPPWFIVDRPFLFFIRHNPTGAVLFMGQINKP
The assay is described as follows: co-IP; lysates of Hep3b and MHCC97h cells (20 mM HEPES, 150 mM NaCl, 2 mM EDTA, 1.5 mM MgCl2, 0.5% NP-40); anti-BAP31 (FMU-BAP31-2), anti-SERPINE2 or mouse IgG isotype with protein A beads overnight; western blot. A general note: A western blot detects proteins with antibodies after separation by electrophoresis.

B1: B-cell receptor-associated protein 31 (protein, UniProt P51572-1 1-246)
chain: MSLQWTAVATFLYAEVFVVLLLCIPFISPKRWQKIFKSRLVELLVSYGNTFFVVLIVILVLLVIDAVREIRKYDDVTEKVNLQNNPGAMEHFHMKLFRAQRNLYIAGFSLLLSFLLRRLVTLISQQATLLASNEAFKKQAESASEAAKKYMEENDQLKKGAAVDGGKLDVGNAEVKLEEENRSLKADLQKLKDELASTKQKLEKAENQVLAMRKQSEGLTKEYDRLLEEHAKLQAAVDGPMDKKEE
In the case of B1, the binding entry is “binds”.
